Experimental data from PubChem BioAssay AID1487 (National Center for Advancing Translational Sciences (NCATS), 2009).
The list shows a part of the results. Shown are side measurements of this screen, not its main read-out; they come without a call. The list favours compounds with an active or inconclusive main result. Potencies come from curve fits of mixed quality, noted in brackets.

Assay: qHTS Assay for Modulators of Lamin A Splicing
Settings: HeLa LMNA splicing GFP/RFP minigene ratio, 48 h
Method in brief: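 S3 HeLa cells stably expressing lamin A-EGFP splicing minigene plus DsRed2, 600 cells/well, 48 h compound exposure at 37C. Laser-scanning cytometry; analysed as GFP (500-530 nm)/RFP (575-640 nm) total intensity ratio; 0.5% DMSO vehicle.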

[1] = measured here: RFP viability control channel
[2] = measured here: GFP splicing reporter channel

SMILES	AC50 [1]	AC50 [2]
COCC(C)n1c(C)cc(C(=O)COC(=O)c2n[nH]c3ccccc23)c1C (stereo unspecified)	5.01 µM [rising, full curve, poor fit]	
Oc1ccc(/C=N/Nc2ncnc3c2ncn3Cc2ccccc2)cc1O	14.1 µM [rising, partial curve]	10 µM [rising, partial curve]
Cc1ccc(C)c(S(=O)(=O)NCc2ccc(C(=O)N3CCCCCC3)cc2)c1	35.5 µM [rising, single point]	
CCOc1ccc(Br)cc1S(=O)(=O)Nc1cccc(S(=O)(=O)N(CC)CC)c1	28.2 µM [rising, single point]	11.2 µM [rising, single point]
CCC(Sc1ncccc1C(=O)Oc1ccccc1Cl)C(=O)Nc1ccccc1OC (stereo unspecified)	15.8 µM [rising, single point]	
Oc1c(C=C2N=c3ccccc3=N2)sc(=S)n1C1CCCCC1	0.00398 µM [falling, full curve, poor fit]	
Cc1ccc(-n2c(O)c(C=NCc3ccccn3)c3ccccc3c2=O)cc1C	14.1 µM [rising, partial curve]	
Cc1csc(NC(=O)c2cccc(S(=O)(=O)N3CCN(C)CC3)c2)n1		1.58 µM [falling, full curve, poor fit]
CCOC(=O)c1cc(NC(=O)NCc2ccco2)c(C)nc1C		10 µM [rising, partial curve, poor fit]
c1ccc(Cc2noc(CN3CCCN(C4Cc5ccccc5C4)CC3)n2)cc1	0.2 µM [falling, full curve, poor fit]	22.4 µM [falling, partial curve, poor fit]
O=C(Nc1ccc([N+](=O)[O-])cc1)C1(c2ccccc2)CCOCC1		0.0224 µM [rising, full curve, poor fit]
Cc1cc(C)c2nc(C(F)(F)F)c(C#N)c(N)c2c1		35.5 µM [rising, single point]
COCCOC(=O)C1=C(C)NC(C)=C(C(=O)OC(C)C)[C@H]1c1cccc([N+](=O)[O-])c1	0.1 µM [falling, full curve]	0.1 µM [falling, full curve]
Cc1ccc(-c2nnc(SCC(=O)N3CC(C)CC(C)C3)o2)cc1C (stereo unspecified)	17.8 µM [rising, partial curve]	11.2 µM [rising, partial curve]
c1nc(N2CCCCCC2)c2[nH]cnc2n1	14.1 µM [rising, single point]	
Cc1oc2ccc(NS(=O)(=O)c3cccc4cccnc34)cc2c1C(=O)OC(C)C	17.8 µM [rising, single point]	

3 structures from above, arranged by length of the SMILES, ascending.
SMILES	AC50 [1]	AC50 [2]
Cc1cc(C)c2nc(C(F)(F)F)c(C#N)c(N)c2c1		35.5 µM [rising, single point]
c1ccc(Cc2noc(CN3CCCN(C4Cc5ccccc5C4)CC3)n2)cc1	0.2 µM [falling, full curve, poor fit]	22.4 µM [falling, partial curve, poor fit]
CCOc1ccc(Br)cc1S(=O)(=O)Nc1cccc(S(=O)(=O)N(CC)CC)c1	28.2 µM [rising, single point]	11.2 µM [rising, single point]
